# Data: US20160046678A1 (ZYNGENIA, published 2016)
# Chains of the proteins cited; added tags and fusions are not shown. Residues count along the entry.
# UniProt P21860, residues 20-643: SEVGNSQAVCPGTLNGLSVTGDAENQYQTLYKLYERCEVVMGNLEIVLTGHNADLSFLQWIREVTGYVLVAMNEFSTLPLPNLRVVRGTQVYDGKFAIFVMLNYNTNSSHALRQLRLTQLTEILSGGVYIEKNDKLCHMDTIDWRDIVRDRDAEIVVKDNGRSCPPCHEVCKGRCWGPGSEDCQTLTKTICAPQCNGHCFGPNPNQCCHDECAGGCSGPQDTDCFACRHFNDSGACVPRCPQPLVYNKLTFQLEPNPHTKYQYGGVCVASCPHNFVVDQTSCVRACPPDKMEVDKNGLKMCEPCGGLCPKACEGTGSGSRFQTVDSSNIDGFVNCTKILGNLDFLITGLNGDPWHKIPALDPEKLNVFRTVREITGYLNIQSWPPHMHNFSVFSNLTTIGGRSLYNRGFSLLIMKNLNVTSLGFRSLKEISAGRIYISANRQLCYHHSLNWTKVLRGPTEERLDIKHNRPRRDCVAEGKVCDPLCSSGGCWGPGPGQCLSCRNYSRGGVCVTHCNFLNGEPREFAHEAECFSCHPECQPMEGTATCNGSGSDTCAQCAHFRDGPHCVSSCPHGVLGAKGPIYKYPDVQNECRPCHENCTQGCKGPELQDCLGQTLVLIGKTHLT
# These are yes or no findings as the source states them, for the method shown. Some results given as binding are weak or reduced against the parent protein; the word gives no strength.
# Target: ErbB3 (UniProt P21860)
# Experiment: MRD screen, Example 48
row,Binder,binding
1,YIDPYCPFLNPTWKDACLARS [EGC975],binds
2,LNDPYCPFLNPIWKEQCMSRY [EGC938],binds
3,FREPYCPFKNPTWLAQCIARS [EGC982],binds
4,VSEPYCPFMNPIWKAECLSRT [EGC931],binds
5,LREPYCPFLNPTWKEQCIARY [EGC955],binds
6,YGDPYCPFLNPTWKENCIART [EGC980],binds
7,TREPYCPFLNPTWLDQCIART [EGC923],binds
8,FPEPYCPFLNPHWKAQCLERL [EGC949],binds
9,RSEPYCPFLNPTWKDQCIARS [EGC962],binds
10,IREPYCPFLNPIWKAHCIALT [EGC930],binds
11,RIEPYCPFVNPTWKDQCLART [EGC915],binds
12,ASEPYCPFINPTWKDECIARS [EGC925],binds
13,SSEHYCPFVNPAWKEACIARY [EGC976],binds
14,FREPYCPFLNPTWKQQCLARI [EGC950],binds
15,SSEPYCPFLNPIWKEHCIART [EGC963],binds
16,IREPYCPFLNPSWKAECIARS [EGC924],binds
17,QNDPYCPFLNPIWKAQCIARS [EGC968],binds
18,QLKPYCPFLNPIWYDQCVSRT [EGC973],binds
19,LREAYCPFINPIWKDQCMARI [EGC944],binds
20,LIEPYCPFLNPHWKAECIARY [EGC945],binds
21,SSEPYCPFLNPKWKHECIARS [EGC913],binds
22,MSDPYCPFLNPTWKAQCIART [EGC952],binds
23,YREPYCPFLNPYWKDQCMART [EGC970],binds

row,Binder,binding
1,RSEPYCPFLNPIWKDQCIARS [EGC966],binds
2,NSEPYCPFSNPTWKDECLIRS [EGC954],binds
3,ANEPYCPFLNPHWKGQCVLRS [EGC983],binds
4,YSEPYCPFLNPIWKEQCIART [EGC933],binds
5,SSEPYCPFLNPYWKEQCIART [EGC969],binds
6,YREPYCPFLNPIWKEQCIART [EGC964],binds
7,FGEPYCPFLNPTWKAECLVRS [EGC934],binds
8,SSEPYCPFLNPSWKDQCIARL [EGC974],binds
9,PSDPYCPFLNPSWKAECLART [EGC947],binds
10,TKAPYCPFKNPIWKAECIART [EGC959],binds
11,LGEPYCPFINPTWKAECLART [EGC979],binds
12,SIEPYCPFLNPTWKEQCIARS [EGC916],binds
13,TDETYCPFKNPIWYEECIARS [EGC928],binds
14,YSEPYCPFLNPTWKAECIART [EGC919],binds
15,GSNPYCPFLNPIWKEACLART [EGC921],binds
16,FSEPYCPFVNPYWKEQCIART [EGC940],binds
17,GYAPYCPFLNPIWKNECITRT [EGC939],binds
18,MHEPYCPFINPTWYEQCLARS [EGC972],binds
19,INEPYCPFQNPFWYAECLART [EGC922],binds
20,STEPYCPFSNPTWKAQCIARI [EGC961],binds
21,STDPYCPFLNPVWNYQCIART [EGC936],binds
22,ISEPYCPFINPTWKAECIARS [EGC958],binds
23,PGDPYCPFLNPIWKQECIVRN [EGC960],binds

# Results, then the binder that gave them:
row,binding,Binder
1,binds,SSEPYCPFINPMWKDQCLART [EGC946]
2,binds,MKEPYCPFLNPTWKAQCIART [EGC927]
3,binds,GYEPYCPFLNPIWKAECKARS [EGC942]
4,binds,LNEPYCPFNNPTWKEECIKRS [EGC984]
5,binds,HNKTYCPFLNPTWKAQCIART [EGC956]
6,binds,LSDPYCPFLNPIWKDQCIART [EGC978]
7,binds,VNEPYCPFLNPKWYAECLART [EGC967]
8,binds,TSEPYCPFLNPTWKEHCMART [EGC920]
9,binds,QSEPYCPFVNPTWKNECIARY [EGC977]
10,binds,LREPYCPFLNPTWKEQCLVRT [EGC935]
11,binds,SSEPYCPFLNPIWKAECIARA [EGC948]
12,binds,PSEPYCPFLNPTWKDQCLQRS [EGC918]
13,binds,RGEPYCPFKNPTWKYQCLART [EGC929]
14,binds,GSEPYCPFLNPIWKAECIARS [EGC914]
15,binds,PREPYCPFLNPIWKDECIART [EGC951]
16,binds,HTEPYCPFLNPTWKEQCLARF [EGC941]
17,binds,EREPYCPFLNPIWLEQCLSRT [EGC932]
18,binds,LTEPYCPFLNPTWKDECLART [EGC981]
19,binds,IGEPYCPFLNPTWKEECIRRT [EGC957]
20,binds,HSEPYCPFVNPTWYNECISRT [EGC965]
21,binds,RTEPYCPFLNPTWKEQCIARS [EGC917]
22,binds,SHEPYCPFQNPIWKAECLART [EGC937]
